Taken from: PubChem BioAssay AID1508597 (Cure First, 2020)
In all, the deposit lists about 2,100 reagents; shown is an unselected part. 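Calls flag viability under 80% in either arm, not effects specific to rucaparib; the reference for percent is not stated.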 Not given: the 100% reference.

Screen: 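Knock-downs altering ovarian cancer cell survival with or without PARP inhibitor rucaparib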 (primary screen)
System: human ovarian carcinoma lines grown from tumours: OCI-P5x (papillary serous) and OCI-C5x (clear cell)
Reagent: siRNA pool against human genes, 1.25 pmol siRNA per well
Timing: 72 h or 96 h, depending on the cell culture
Challenge: rucaparib 20 µM (about IC30) or vehicle, present until read-out
Measurement: 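Luminescent ATP-based viability assay read 72 or 96 h after transfection, depending on culture, given as normalised percent viability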
Direction: viability, normalised: higher = more viable cells remaining
Active means: 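a well counts as a hit if its normalised viability is under 80 percent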
Meaning of the calls: active = viability under 80%; inactive = viability 80% or more

For H2AC4 (H2A clustered histone 4), rucaparib or vehicle Rucaparib, cell line OCI-C5x (clear cell), technical replicate 1, the entry reads viability, normalised (%) = 47.7; active. For H2AC4 (H2A clustered histone 4), rucaparib or vehicle Rucaparib, cell line OCI-C5x (clear cell), technical replicate 2 the deposit lists viability, normalised (%) = 78.7; active. H2AC4 (H2A clustered histone 4), rucaparib or vehicle Rucaparib, cell line OCI-C5x (clear cell), technical replicate 3 gave viability, normalised (%) = 67.7; active. With H2AC4 (H2A clustered histone 4), rucaparib or vehicle Rucaparib, cell line OCI-P5x (serous), technical replicate 1, the entry reads viability, normalised (%) = 103; inactive. H2AC4 (H2A clustered histone 4), rucaparib or vehicle Rucaparib, cell line OCI-P5x (serous), technical replicate 2 gave viability, normalised (%) = 85.1; inactive. With H2AC4 (H2A clustered histone 4), rucaparib or vehicle Rucaparib, cell line OCI-P5x (serous), technical replicate 3, the entry reads viability, normalised (%) = 95.8; inactive.

H2AC4 (H2A clustered histone 4), rucaparib or vehicle Vehicle, cell line OCI-C5x (clear cell), technical replicate 1 gave viability, normalised (%) = 63.9; active. With H2AC4 (H2A clustered histone 4), rucaparib or vehicle Vehicle, cell line OCI-C5x (clear cell), technical replicate 2, the values are viability, normalised (%) = 48.7; active. H2AC4 (H2A clustered histone 4), rucaparib or vehicle Vehicle, cell line OCI-C5x (clear cell), technical replicate 3 scored viability, normalised (%) = 60.1; active. H2AC4 (H2A clustered histone 4), rucaparib or vehicle Vehicle, cell line OCI-P5x (serous), technical replicate 1 gave viability, normalised (%) = 81.9; inactive. For H2AC4 (H2A clustered histone 4), rucaparib or vehicle Vehicle, cell line OCI-P5x (serous), technical replicate 2 the deposit lists viability, normalised (%) = 87.1; inactive. H2AC4 (H2A clustered histone 4), rucaparib or vehicle Vehicle, cell line OCI-P5x (serous), technical replicate 3 showed viability, normalised (%) = 87.5; inactive.

ALG8 (ALG8 alpha-1,3-glucosyltransferase), rucaparib or vehicle Rucaparib, cell line OCI-C5x (clear cell), technical replicate 1 gave viability, normalised (%) = 46; active. For ALG8 (ALG8 alpha-1,3-glucosyltransferase), rucaparib or vehicle Rucaparib, cell line OCI-C5x (clear cell), technical replicate 2 the deposit lists viability, normalised (%) = 53.6; active. ALG8 (ALG8 alpha-1,3-glucosyltransferase), rucaparib or vehicle Rucaparib, cell line OCI-C5x (clear cell), technical replicate 3 scored viability, normalised (%) = 52; active. For ALG8 (ALG8 alpha-1,3-glucosyltransferase), rucaparib or vehicle Rucaparib, cell line OCI-P5x (serous), technical replicate 1, the entry reads viability, normalised (%) = 64.6; active. ALG8 (ALG8 alpha-1,3-glucosyltransferase), rucaparib or vehicle Rucaparib, cell line OCI-P5x (serous), technical replicate 2 gave viability, normalised (%) = 68.1; active. For ALG8 (ALG8 alpha-1,3-glucosyltransferase), rucaparib or vehicle Rucaparib, cell line OCI-P5x (serous), technical replicate 3, the values are viability, normalised (%) = 59.1; active.

With ALG8 (ALG8 alpha-1,3-glucosyltransferase), rucaparib or vehicle Vehicle, cell line OCI-C5x (clear cell), technical replicate 1 the deposit lists viability, normalised (%) = 53.4; active. For ALG8 (ALG8 alpha-1,3-glucosyltransferase), rucaparib or vehicle Vehicle, cell line OCI-C5x (clear cell), technical replicate 2 the deposit lists viability, normalised (%) = 50.7; active. With ALG8 (ALG8 alpha-1,3-glucosyltransferase), rucaparib or vehicle Vehicle, cell line OCI-C5x (clear cell), technical replicate 3, the entry reads viability, normalised (%) = 43.1; active. With ALG8 (ALG8 alpha-1,3-glucosyltransferase), rucaparib or vehicle Vehicle, cell line OCI-P5x (serous), technical replicate 1 the deposit lists viability, normalised (%) = 70.5; active. For ALG8 (ALG8 alpha-1,3-glucosyltransferase), rucaparib or vehicle Vehicle, cell line OCI-P5x (serous), technical replicate 2 the deposit lists viability, normalised (%) = 66; active. ALG8 (ALG8 alpha-1,3-glucosyltransferase), rucaparib or vehicle Vehicle, cell line OCI-P5x (serous), technical replicate 3 gave viability, normalised (%) = 70.1; active.

Quoted from the entries so far (7 entries):
H2AC4 (H2A clustered histone 4), rucaparib or vehicle Rucaparib, cell line OCI-C5x (clear cell), technical replicate 2 | viability, normalised (%) = 78.7; Outcome = active
H2AC4 (H2A clustered histone 4), rucaparib or vehicle Rucaparib, cell line OCI-C5x (clear cell), technical replicate 3 | viability, normalised (%) = 67.7; Outcome = active
H2AC4 (H2A clustered histone 4), rucaparib or vehicle Rucaparib, cell line OCI-P5x (serous), technical replicate 1 | viability, normalised (%) = 103; Outcome = inactive
H2AC4 (H2A clustered histone 4), rucaparib or vehicle Rucaparib, cell line OCI-P5x (serous), technical replicate 2 | viability, normalised (%) = 85.1; Outcome = inactive
H2AC4 (H2A clustered histone 4), rucaparib or vehicle Rucaparib, cell line OCI-P5x (serous), technical replicate 3 | viability, normalised (%) = 95.8; Outcome = inactive
H2AC4 (H2A clustered histone 4), rucaparib or vehicle Vehicle, cell line OCI-C5x (clear cell), technical replicate 1 | viability, normalised (%) = 63.9; Outcome = active
H2AC4 (H2A clustered histone 4), rucaparib or vehicle Vehicle, cell line OCI-C5x (clear cell), technical replicate 2 | viability, normalised (%) = 48.7; Outcome = active

Additional records follow.
With WAPL (WAPL cohesin release factor), rucaparib or vehicle Rucaparib, cell line OCI-C5x (clear cell), technical replicate 1 the deposit lists viability, normalised (%) = 79.5; active. With WAPL (WAPL cohesin release factor), rucaparib or vehicle Rucaparib, cell line OCI-C5x (clear cell), technical replicate 2 the deposit lists viability, normalised (%) = 60.2; active. For WAPL (WAPL cohesin release factor), rucaparib or vehicle Rucaparib, cell line OCI-C5x (clear cell), technical replicate 3 the deposit lists viability, normalised (%) = 56; active. WAPL (WAPL cohesin release factor), rucaparib or vehicle Rucaparib, cell line OCI-P5x (serous), technical replicate 1 gave viability, normalised (%) = 91.8; inactive. WAPL (WAPL cohesin release factor), rucaparib or vehicle Rucaparib, cell line OCI-P5x (serous), technical replicate 2 gave viability, normalised (%) = 97.8; inactive. WAPL (WAPL cohesin release factor), rucaparib or vehicle Rucaparib, cell line OCI-P5x (serous), technical replicate 3 gave viability, normalised (%) = 73.4; active.

With WAPL (WAPL cohesin release factor), rucaparib or vehicle Vehicle, cell line OCI-C5x (clear cell), technical replicate 1, the values are viability, normalised (%) = 72.1; active. WAPL (WAPL cohesin release factor), rucaparib or vehicle Vehicle, cell line OCI-C5x (clear cell), technical replicate 2 showed viability, normalised (%) = 50.5; active. For WAPL (WAPL cohesin release factor), rucaparib or vehicle Vehicle, cell line OCI-C5x (clear cell), technical replicate 3 the deposit lists viability, normalised (%) = 53.5; active. With WAPL (WAPL cohesin release factor), rucaparib or vehicle Vehicle, cell line OCI-P5x (serous), technical replicate 1, the values are viability, normalised (%) = 93.6; inactive. WAPL (WAPL cohesin release factor), rucaparib or vehicle Vehicle, cell line OCI-P5x (serous), technical replicate 2 gave viability, normalised (%) = 68.7; active. With WAPL (WAPL cohesin release factor), rucaparib or vehicle Vehicle, cell line OCI-P5x (serous), technical replicate 3 the deposit lists viability, normalised (%) = 81.7; inactive.

With BRWD3 (bromodomain and WD repeat domain containing 3), rucaparib or vehicle Rucaparib, cell line OCI-C5x (clear cell), technical replicate 1, the values are viability, normalised (%) = 69.2; active. BRWD3 (bromodomain and WD repeat domain containing 3), rucaparib or vehicle Rucaparib, cell line OCI-C5x (clear cell), technical replicate 2 showed viability, normalised (%) = 53; active. BRWD3 (bromodomain and WD repeat domain containing 3), rucaparib or vehicle Rucaparib, cell line OCI-C5x (clear cell), technical replicate 3 gave viability, normalised (%) = 46.1; active. BRWD3 (bromodomain and WD repeat domain containing 3), rucaparib or vehicle Rucaparib, cell line OCI-P5x (serous), technical replicate 1 gave viability, normalised (%) = 71.2; active. For BRWD3 (bromodomain and WD repeat domain containing 3), rucaparib or vehicle Rucaparib, cell line OCI-P5x (serous), technical replicate 2, the entry reads viability, normalised (%) = 71.7; active. For BRWD3 (bromodomain and WD repeat domain containing 3), rucaparib or vehicle Rucaparib, cell line OCI-P5x (serous), technical replicate 3, the entry reads viability, normalised (%) = 77.5; active.

BRWD3 (bromodomain and WD repeat domain containing 3), rucaparib or vehicle Vehicle, cell line OCI-C5x (clear cell), technical replicate 1 gave viability, normalised (%) = 44; active. With BRWD3 (bromodomain and WD repeat domain containing 3), rucaparib or vehicle Vehicle, cell line OCI-C5x (clear cell), technical replicate 2 the deposit lists viability, normalised (%) = 50.2; active. With BRWD3 (bromodomain and WD repeat domain containing 3), rucaparib or vehicle Vehicle, cell line OCI-C5x (clear cell), technical replicate 3 the deposit lists viability, normalised (%) = 54.5; active. With BRWD3 (bromodomain and WD repeat domain containing 3), rucaparib or vehicle Vehicle, cell line OCI-P5x (serous), technical replicate 1, the values are viability, normalised (%) = 70.1; active. BRWD3 (bromodomain and WD repeat domain containing 3), rucaparib or vehicle Vehicle, cell line OCI-P5x (serous), technical replicate 2 scored viability, normalised (%) = 71.7; active. For BRWD3 (bromodomain and WD repeat domain containing 3), rucaparib or vehicle Vehicle, cell line OCI-P5x (serous), technical replicate 3, the entry reads viability, normalised (%) = 73.2; active.
